The other results are listed elsewhere or left out. Repeats are few or missing, and single values can be far off.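 The apoptosis fraction was the count of cleaved-PARP antibody-stained nuclei relative to all DNA-stained nuclei, imaged in 1,536-well plates. Screening doses were set so most cells survived, and baseline and induced cleaved-PARP levels vary greatly across cell lines.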
Tests used:
Test in all cases: cleaved PARP positive nuclei fraction relative to DMSO control; melanoma cells; higher = more apoptosis
Conditions in all cases: library dose: low library concentration; 72 h
MZ2-MEL = test system: MZ2-MEL
MeWo = test system: MeWo
RPMI7951 = test system: RPMI7951
RVH-421 = test system: RVH-421
SkMel28 = test system: SkMel28
SkMel2 = test system: SkMel2
SkMel30 = test system: SkMel30
SkMel5 = test system: SkMel5
UACC257 = test system: UACC257
WM115 = test system: WM115
WM1716 = test system: WM1716
WM3526 = test system: WM3526
WM3619 = test system: WM3619
WM451Lu = test system: WM451Lu
UACC62 = test system: UACC62
WM1745 = test system: WM1745

`COc1cc([C@@H]2c3cc4c(cc3[C@@H](O[C@@H]3O[C@@H]5CO[C@@H](C)O[C@H]5[C@H](O)[C@H]3O)[C@H]3COC(=O)[C@H]23)OCO4)cc(OC)c1O` [etoposide] + Cc1cc(N2CCOCC2)cc2[nH]c(-c3c(NC[C@@H](O)c4cccc(Cl)c4)cc[nH]c3=O)nc12 [BMS536924] (first compound 0.02 µM, partner dose 0.2 µM) was tested, and the “cleaved PARP positive nuclei fraction” value (MZ2-MEL) was 121%, the “cleaved PARP positive nuclei fraction” value (MeWo) was 249% and the “cleaved PARP positive nuclei fraction” value (RPMI7951) was 108%. The “cleaved PARP positive nuclei fraction” value (RVH-421) was 118%, the “cleaved PARP positive nuclei fraction” value (SkMel28) was 150% and the “cleaved PARP positive nuclei fraction” value (SkMel2) was 160%. For the same compound, the “cleaved PARP positive nuclei fraction” value (SkMel30) was 81.1%, the “cleaved PARP positive nuclei fraction” value (SkMel5) was 71.2% and the “cleaved PARP positive nuclei fraction” value (UACC257) was 33.2%. The “cleaved PARP positive nuclei fraction” value (WM115) was 38.5%, the “cleaved PARP positive nuclei fraction” value (WM1716) was 126% and the “cleaved PARP positive nuclei fraction” value (WM3526) was 65.9%. For the same compound, the “cleaved PARP positive nuclei fraction” value (WM3619) was 116% and the “cleaved PARP positive nuclei fraction” value (WM451Lu) was 120%.

For `COc1cc([C@@H]2c3cc4c(cc3[C@@H](O[C@@H]3O[C@@H]5CO[C@@H](C)O[C@H]5[C@H](O)[C@H]3O)[C@H]3COC(=O)[C@H]23)OCO4)cc(OC)c1O` [etoposide] + COc1ccc2c(c1)CCC1C2CCC2(C)C(NCCCCCCN3C(=O)C=CC3=O)CCC12 [U73122] (first compound 0.02 µM, partner dose 0.4 µM), the “cleaved PARP positive nuclei fraction” value (MZ2-MEL) was 98%, the “cleaved PARP positive nuclei fraction” value (MeWo) was 63.9% and the “cleaved PARP positive nuclei fraction” value (RPMI7951) was 69%. For the same compound, the “cleaved PARP positive nuclei fraction” value (RVH-421) was 128%, the “cleaved PARP positive nuclei fraction” value (SkMel28) was 164% and the “cleaved PARP positive nuclei fraction” value (SkMel2) was 90.9%. The “cleaved PARP positive nuclei fraction” value (SkMel30) was 83.9%, the “cleaved PARP positive nuclei fraction” value (SkMel5) was 83.3% and the “cleaved PARP positive nuclei fraction” value (UACC62) was 167%. For the same compound, the “cleaved PARP positive nuclei fraction” value (WM115) was 71.9%, the “cleaved PARP positive nuclei fraction” value (WM1716) was 77.9% and the “cleaved PARP positive nuclei fraction” value (WM1745) was 103%. For the same compound, the “cleaved PARP positive nuclei fraction” value (WM3526) was 75.1%, the “cleaved PARP positive nuclei fraction” value (WM3619) was 108% and the “cleaved PARP positive nuclei fraction” value (WM451Lu) was 45.9%.

With `COc1cc([C@@H]2c3cc4c(cc3[C@@H](O[C@@H]3O[C@@H]5CO[C@@H](C)O[C@H]5[C@H](O)[C@H]3O)[C@H]3COC(=O)[C@H]23)OCO4)cc(OC)c1O` [etoposide] + Nc1ncn([C@H]2C[C@H](O)[C@@H](CO)O2)c(=O)n1 [decitabine] (first compound 0.02 µM, partner dose 0.1 µM) the “cleaved PARP positive nuclei fraction” value (MZ2-MEL) was 64%, the “cleaved PARP positive nuclei fraction” value (MeWo) was 119% and the “cleaved PARP positive nuclei fraction” value (RPMI7951) was 66.1%. For the same compound, the “cleaved PARP positive nuclei fraction” value (RVH-421) was 58.8%, the “cleaved PARP positive nuclei fraction” value (SkMel28) was 50.4% and the “cleaved PARP positive nuclei fraction” value (SkMel2) was 122%. For the same compound, the “cleaved PARP positive nuclei fraction” value (SkMel30) was 72.3%, the “cleaved PARP positive nuclei fraction” value (UACC62) was 142% and the “cleaved PARP positive nuclei fraction” value (WM115) was 229%. The “cleaved PARP positive nuclei fraction” value (WM1716) was 204%, the “cleaved PARP positive nuclei fraction” value (WM1745) was 83.6% and the “cleaved PARP positive nuclei fraction” value (WM3526) was 40.4%. The “cleaved PARP positive nuclei fraction” value (WM3619) was 82.6% and the “cleaved PARP positive nuclei fraction” value (WM451Lu) was 278%.

`COc1cc([C@@H]2c3cc4c(cc3[C@@H](O[C@@H]3O[C@@H]5CO[C@@H](C)O[C@H]5[C@H](O)[C@H]3O)[C@H]3COC(=O)[C@H]23)OCO4)cc(OC)c1O` [etoposide] + O=C(O)[C@@H]1[O][Sb](=[O])([O][Sb]2(=[O])[O][C@H]([C@H](O)CO)[C@H](O)[C@H](C(=O)O)[O]2)[O][C@H]([C@H](O)CO)[C@@H]1O [stibogluconate] (first compound 0.02 µM, partner dose 2 µM) was tested, and the “cleaved PARP positive nuclei fraction” value (MZ2-MEL) was 162%, the “cleaved PARP positive nuclei fraction” value (MeWo) was 95.8% and the “cleaved PARP positive nuclei fraction” value (RPMI7951) was 108%. For the same compound, the “cleaved PARP positive nuclei fraction” value (RVH-421) was 166%, the “cleaved PARP positive nuclei fraction” value (SkMel28) was 70.1% and the “cleaved PARP positive nuclei fraction” value (SkMel2) was 74.3%. For the same compound, the “cleaved PARP positive nuclei fraction” value (SkMel30) was 18%, the “cleaved PARP positive nuclei fraction” value (UACC62) was 59.6% and the “cleaved PARP positive nuclei fraction” value (WM115) was 101%. The “cleaved PARP positive nuclei fraction” value (WM1716) was 39.9%, the “cleaved PARP positive nuclei fraction” value (WM1745) was 109% and the “cleaved PARP positive nuclei fraction” value (WM3526) was 94.6%. For the same compound, the “cleaved PARP positive nuclei fraction” value (WM3619) was 97.2% and the “cleaved PARP positive nuclei fraction” value (WM451Lu) was 101%.

With `O=c1[nH]nc(Sc2ncc([N+](=O)[O-])s2)n1-c1ccc2c(c1)OCCO2` + Cn1sc(=O)n(Cc2ccccc2)c1=O [TDZD-8] (first compound 0.2 µM, partner dose 0.4 µM) the “cleaved PARP positive nuclei fraction” value (MZ2-MEL) was 52.9%, the “cleaved PARP positive nuclei fraction” value (MeWo) was 126% and the “cleaved PARP positive nuclei fraction” value (RPMI7951) was 122%. For the same compound, the “cleaved PARP positive nuclei fraction” value (RVH-421) was 142%, the “cleaved PARP positive nuclei fraction” value (SkMel28) was 85.4% and the “cleaved PARP positive nuclei fraction” value (SkMel2) was 50.5%. The “cleaved PARP positive nuclei fraction” value (SkMel30) was 25.8%, the “cleaved PARP positive nuclei fraction” value (UACC62) was 111% and the “cleaved PARP positive nuclei fraction” value (WM115) was 114%. For the same compound, the “cleaved PARP positive nuclei fraction” value (WM1716) was 577%, the “cleaved PARP positive nuclei fraction” value (WM1745) was 102% and the “cleaved PARP positive nuclei fraction” value (WM3526) was 70.7%. The “cleaved PARP positive nuclei fraction” value (WM3619) was 106% and the “cleaved PARP positive nuclei fraction” value (WM451Lu) was 269%.

`COc1cc([C@@H]2c3cc4c(cc3[C@@H](O[C@@H]3O[C@@H]5CO[C@@H](C)O[C@H]5[C@H](O)[C@H]3O)[C@H]3COC(=O)[C@H]23)OCO4)cc(OC)c1O` [etoposide] + CN(c1ncccc1CNc1nc(Nc2ccc3c(c2)CC(=O)N3)ncc1C(F)(F)F)S(C)(=O)=O [PF562271] (first compound 0.02 µM, partner dose 0.08 µM) was tested, and the “cleaved PARP positive nuclei fraction” value (MZ2-MEL) was 86.1%, the “cleaved PARP positive nuclei fraction” value (MeWo) was 117% and the “cleaved PARP positive nuclei fraction” value (RPMI7951) was 212%. For the same compound, the “cleaved PARP positive nuclei fraction” value (RVH-421) was 39.6%, the “cleaved PARP positive nuclei fraction” value (SkMel28) was 106% and the “cleaved PARP positive nuclei fraction” value (SkMel2) was 183%. For the same compound, the “cleaved PARP positive nuclei fraction” value (SkMel30) was 119%, the “cleaved PARP positive nuclei fraction” value (UACC62) was 59.5% and the “cleaved PARP positive nuclei fraction” value (WM115) was 67.7%. For the same compound, the “cleaved PARP positive nuclei fraction” value (WM1716) was 85.7%, the “cleaved PARP positive nuclei fraction” value (WM1745) was 211% and the “cleaved PARP positive nuclei fraction” value (WM3526) was 95.4%. The “cleaved PARP positive nuclei fraction” value (WM3619) was 108% and the “cleaved PARP positive nuclei fraction” value (WM451Lu) was 102%.

Reference: the supplement of paper PMC4604168 (melanoma cell lines)
